Results are given in words; binding and its absence hold for the method and conditions named. For some assays here: Binding can be weak; no strength is given. Sequences can lack the tags named with a protein.
What was measured:
[1] = molecular target: T1, biotinylated AviTag-MANF^22–179 (mouse) (UniProt Q9CXI5); assay: BLI; streptavidin biosensors loaded with biotinylated MANF, SAP or SAPLIP; BiP^T229A-V461F (46 µM) as analyte with 2 mM ATP; HKMT buffer, Octet RED96; both purified
T1 sequence (chain, biotin (on the AviTag, by E. coli BirA)): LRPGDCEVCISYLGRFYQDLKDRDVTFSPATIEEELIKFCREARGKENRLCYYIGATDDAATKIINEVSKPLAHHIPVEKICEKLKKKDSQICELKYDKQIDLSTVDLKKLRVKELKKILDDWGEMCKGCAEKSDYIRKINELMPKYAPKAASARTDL

[2] = molecular target: T2, biotinylated AviTag-SAPLIP^22–123 (mouse) (UniProt Q9CXI5); assay: as above
T2 sequence (chain, biotin (on the AviTag, by E. coli BirA)): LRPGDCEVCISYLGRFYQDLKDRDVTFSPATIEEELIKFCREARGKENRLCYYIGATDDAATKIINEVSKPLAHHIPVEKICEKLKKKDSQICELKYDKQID

[3] = molecular target: T3, biotinylated AviTag-SAP^119–179 (mouse) (UniProt Q9CXI5); assay: as above
T3 sequence (chain, biotin (on the AviTag, by E. coli BirA)): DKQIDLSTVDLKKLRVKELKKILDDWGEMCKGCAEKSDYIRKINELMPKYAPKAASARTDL

[4] = molecular target: T1, biotinylated AviTag-MANF^22–179 (mouse); assay: BLI; streptavidin biosensors loaded with biotinylated MANF, SAP or SAPLIP; BiP^T229A-V461F (46 µM) as analyte with 2 mM ADP; HKMT buffer (50 mM HEPES-KOH pH 7.4, 100 mM KCl, 10 mM MgCl2, 0.05% Triton X-100), Octet RED96; both purified
[5] = molecular target: T2, biotinylated AviTag-SAPLIP^22–123 (mouse); assay: as above
[6] = molecular target: T3, biotinylated AviTag-SAP^119–179 (mouse); assay: as above
[7] = molecular target: T1, biotinylated AviTag-MANF^22–179 (mouse); assay: BLI; sequential dipping: streptavidin biosensors loaded with biotinylated MANF, SAP or SAPLIP, dipped in BiP SBD, buffer, BiP NBD with 2 mM ATP, 2 mM ATP, BiP NBD with 2 mM ADP, 2 mM ADP; HKMT buffer; both purified
[8] = molecular target: T3, biotinylated AviTag-SAP^119–179 (mouse); assay: as above

Row | binding [2] | binding [4] | binding [5] | binding [6] | binding [7] | binding [8] | Substance | binding [1] | binding [3]
1 | no binding (tested: 46 µM) | binds | no binding (tested: 46 µM) | binds |  |  | BiP^T229A-V461F (Chinese hamster) | no binding (only with 2 mM ATP (BiP at 46 µM)) | no binding (only with 2 mM ATP (BiP at 46 µM))
2 |  |  |  |  | no binding | no binding | isolated BiP substrate (client)-binding domain (Chinese hamster) (domain or fragment) |  | 

From PMC6358605
